Results deposited as PubChem BioAssay AID1259254 (NCATS, 2017).

Assay: 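Gene knock-downs that lead to re-replication, shown by excess G2 DNA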 (primary screen)
Cell system: human HCT116 colorectal cancer cells
Knock-down reagent: single siRNA against human genes
Time to read-out: 3 days
Read-out: 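Imaged Hoechst DNA stain sorts each cell into a cycle phase by DNA amount; per plate, G2 fraction set to 0% for non-targeting and 100% for GMNN siRNA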
Reading the numbers: G2 robust z-score and G2 cells, % of GMNN control: higher = more G2 cells, more excess DNA replication; raw share of cells in G2: higher = larger share of cells with G2 DNA content
Active means: 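Active siRNAs have a G2 robust z of 5 or more median absolute deviations over the median, which in these data means about 38% or higher of GMNN control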
The whole screen tested about 59,000 reagents; this is a random part of them. Over the whole deposit, about 1,550 (2.6%) were called active. 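G2 share is only a proxy for re-replication; each gene was hit by three separate siRNAs, and active genes were retested.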 The raw values are shown without normalisation. Reagents against one gene are numbered here. No sequences are given here. Not given: the amount of reagent.

gene	siRNA no.	G2 robust z-score	G2 cells, % of GMNN control	raw share of cells in G2 (%)	outcome
EMILIN3	1	3.11	24.9	14.6	inactive
EMILIN3	2	2.41	19.9	9.24	inactive
EMILIN3	3	0.36	5.5	4.67	inactive
CCND3	1	-0.937	-3.62	2.85	inactive
CCND3	2	0.0943	3.63	6.32	inactive
CCND3	3	1.65	14.5	10.2	inactive
VCF2	1	-0.775	-2.48	3.03	inactive
VCF2	2	0.498	6.47	5.03	inactive
VCF2	3	0.888	9.22	5.85	inactive
CPSF4	1	1.34	12.4	11.4	inactive
CPSF4	2	2.46	20.3	10.4	inactive
CPSF4	3	0.735	8.14	9.23	inactive
TAS2R3	1	-0.302	0.843	4.18	inactive
TAS2R3	2	-0.146	1.94	5.28	inactive
TAS2R3	3	0.0727	3.48	4.35	inactive
AK4P3	1	0.434	6.02	5.46	inactive
AK4P3	2	-0.389	0.231	3.12	inactive
AK4P3	3	-1.06	-4.53	2.07	inactive
GRHL1	1	-0.686	-1.86	2.14	inactive
GRHL1	2	0.36	5.5	8.39	inactive
GRHL1	3	-1.34	-6.47	1.6	inactive
SPPL2C	1	0.584	7.08	8.59	inactive
SPPL2C	2	7.57	56.2	23	active
SPPL2C	3	-0.247	1.23	4.72	inactive
CALR3	1	1.61	14.3	8	inactive
CALR3	2	12	87.4	33.5	active
CALR3	3	0.637	7.45	6.14	inactive
RNPEPL1	1	-1.65	-8.63	2.55	inactive
RNPEPL1	2	-0.749	-2.31	4.09	inactive
RNPEPL1	3	1.7	14.9	9.48	inactive
PAPOLA-DT	1	1	10	7.59	inactive
PAPOLA-DT	2	-0.633	-1.48	2.89	inactive
PAPOLA-DT	3	-0.47	-0.341	3.37	inactive
R3HDML	1	-0.33	0.643	4.04	inactive
R3HDML	2	-0.427	-0.0353	2.9	inactive
R3HDML	3	0.637	7.45	5.67	inactive
RTCB	1	-1.68	-8.86	0.431	inactive
RTCB	2	-0.903	-3.39	2.85	inactive
RTCB	3	0.601	7.2	5.57	inactive
ACADL	1	0.137	3.93	5.46	inactive
ACADL	2	0.51	6.56	7.41	inactive
ACADL	3	-1.03	-4.27	3.27	inactive
GCHFR	1	0.461	6.21	7.62	inactive
GCHFR	2	3.38	26.7	13.2	inactive
GCHFR	3	-0.62	-1.39	4.73	inactive
TAC4	1	-0.748	-2.29	2.46	inactive
TAC4	2	-0.646	-1.58	3.01	inactive
TAC4	3	-0.223	1.4	3.61	inactive
TMEM184B	1	0.682	7.77	7.33	inactive
TMEM184B	2	-0.3	0.854	4.31	inactive
TMEM184B	3	-0.964	-3.81	1.97	inactive
TLR7	1	4.79	36.7	22.6	inactive
TLR7	2	-0.316	0.745	4.52	inactive
TLR7	3	0.484	6.37	6.24	inactive
LOC644634	1	-0.885	-3.26	2.4	inactive
LOC644634	2	2.25	18.8	10	inactive
LOC644634	3	-1.3	-6.15	1.35	inactive
LOC727820 (retired record)	1	0.294	5.04	5.45	inactive
LOC727820 (retired record)	2	0.593	7.14	5.39	inactive
LOC727820 (retired record)	3	-0.859	-3.08	2.44	inactive
ANAPC1	1	0.358	5.48	6.97	inactive
ANAPC1	2	1.17	11.2	9.64	inactive
ANAPC1	3	6.02	45.3	14.7	active
OR8K5	1	1.67	14.7	8.92	inactive
OR8K5	2	1.56	13.9	7.91	inactive
OR8K5	3	4.1	31.8	13.3	inactive
C1orf74	1	0.0489	3.31	4.94	inactive
C1orf74	2	1.38	12.7	6.83	inactive
C1orf74	3	-0.933	-3.6	1.81	inactive
HIGD1A	1	1.12	10.9	7.1	inactive
HIGD1A	2	-0.499	-0.545	4.21	inactive
HIGD1A	3	0.586	7.09	7.01	inactive
C5AR1	1	-1.33	-6.39	3.56	inactive
C5AR1	2	-1.01	-4.14	3.07	inactive
C5AR1	3	3.85	30.1	12.5	inactive
SMARCD2	1	6.22	46.7	19.4	active
SMARCD2	2	1.5	13.5	10.2	inactive
SMARCD2	3	3.36	26.6	13.7	inactive
SYTL4	1	0.144	3.98	4.46	inactive
SYTL4	2	1.56	14	8.02	inactive
SYTL4	3	2.87	23.2	11.7	inactive
FSHR	1	0.0327	3.2	4.8	inactive
FSHR	2	0.261	4.8	6.98	inactive
FSHR	3	0.2	4.37	6.93	inactive
RP1	1	1.13	10.9	9.62	inactive
RP1	2	0.455	6.17	6.66	inactive
RP1	3	0.681	7.76	6.16	inactive
